For at least one entry, the source does not settle the construct or the ends of the probe. A weaker result is weaker than the reference pair of the same experiment.
Test system: Pol-alpha/primase
Experiment: fluorescence anisotropy
Details: 30 mM HEPES pH 7.5, 30 mM NaCl, 0.25 mM EDTA, 10% glycerol, 0.01% NP-40, 1 mM DTT, plus 0.5 M NaCl for dT30 (no supplemental NaCl for dT60), 2.5 nM DNA, room temperature, recombinant protein, label: 6-FAM, single-stranded DNA

Question: Does “TTTTTTTTTTTTTTTTTTTTTTTTTTTTTTTTTTTTTTTTTTTTTTTTTTTTTTTTTTTT [6-FAM-oligo-dT60]” bind (DNA pre-bound with equimolar (2.5 nM) RPA-deltaWH (P9), no significant difference from WT RPA)?
Answer: binds more weakly

Question: Does “TTTTTTTTTTTTTTTTTTTTTTTTTTTTTTTTTTTTTTTTTTTTTTTTTTTTTTTTTTTT [6-FAM-oligo-dT60]” bind (DNA pre-bound with equimolar (2.5 nM) WT RPA (P1), lower maximum than naked DNA)?
Answer: binds more weakly
